These are yes or no findings as the source states them, for the method shown. Some results given as binding are weak or reduced against the parent protein; the word gives no strength.

The chains behind the UniProt entries cited, without tags or fusion partners. Where a name states a change or a piece, a line headed by the entry shows the natural chain unless it says otherwise.
UniProt P06756: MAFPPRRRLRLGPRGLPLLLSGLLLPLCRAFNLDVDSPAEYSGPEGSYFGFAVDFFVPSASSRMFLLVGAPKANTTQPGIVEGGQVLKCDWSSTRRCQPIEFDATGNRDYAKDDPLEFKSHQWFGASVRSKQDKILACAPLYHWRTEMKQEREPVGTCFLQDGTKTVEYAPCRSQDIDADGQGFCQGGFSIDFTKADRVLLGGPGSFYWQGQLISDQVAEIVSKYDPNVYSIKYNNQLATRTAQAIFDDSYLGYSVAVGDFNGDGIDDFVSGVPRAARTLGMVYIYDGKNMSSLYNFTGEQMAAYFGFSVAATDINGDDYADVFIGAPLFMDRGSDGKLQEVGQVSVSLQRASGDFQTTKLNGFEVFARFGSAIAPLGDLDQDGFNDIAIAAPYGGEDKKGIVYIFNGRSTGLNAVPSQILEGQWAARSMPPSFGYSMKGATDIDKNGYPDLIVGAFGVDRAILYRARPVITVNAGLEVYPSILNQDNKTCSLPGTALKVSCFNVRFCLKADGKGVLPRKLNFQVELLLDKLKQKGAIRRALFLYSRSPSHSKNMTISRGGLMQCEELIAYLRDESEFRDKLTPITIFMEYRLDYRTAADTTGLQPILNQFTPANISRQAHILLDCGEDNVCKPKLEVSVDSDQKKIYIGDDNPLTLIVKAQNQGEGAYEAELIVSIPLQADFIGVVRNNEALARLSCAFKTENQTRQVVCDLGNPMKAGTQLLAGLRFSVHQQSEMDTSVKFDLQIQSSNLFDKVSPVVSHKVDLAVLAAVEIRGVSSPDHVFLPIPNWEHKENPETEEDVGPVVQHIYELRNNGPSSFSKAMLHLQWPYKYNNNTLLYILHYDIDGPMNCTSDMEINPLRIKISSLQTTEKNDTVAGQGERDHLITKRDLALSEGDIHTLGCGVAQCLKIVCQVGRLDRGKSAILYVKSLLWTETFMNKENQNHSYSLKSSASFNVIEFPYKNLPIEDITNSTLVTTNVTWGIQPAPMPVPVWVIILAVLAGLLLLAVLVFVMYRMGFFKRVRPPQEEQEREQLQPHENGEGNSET
UniProt P05106: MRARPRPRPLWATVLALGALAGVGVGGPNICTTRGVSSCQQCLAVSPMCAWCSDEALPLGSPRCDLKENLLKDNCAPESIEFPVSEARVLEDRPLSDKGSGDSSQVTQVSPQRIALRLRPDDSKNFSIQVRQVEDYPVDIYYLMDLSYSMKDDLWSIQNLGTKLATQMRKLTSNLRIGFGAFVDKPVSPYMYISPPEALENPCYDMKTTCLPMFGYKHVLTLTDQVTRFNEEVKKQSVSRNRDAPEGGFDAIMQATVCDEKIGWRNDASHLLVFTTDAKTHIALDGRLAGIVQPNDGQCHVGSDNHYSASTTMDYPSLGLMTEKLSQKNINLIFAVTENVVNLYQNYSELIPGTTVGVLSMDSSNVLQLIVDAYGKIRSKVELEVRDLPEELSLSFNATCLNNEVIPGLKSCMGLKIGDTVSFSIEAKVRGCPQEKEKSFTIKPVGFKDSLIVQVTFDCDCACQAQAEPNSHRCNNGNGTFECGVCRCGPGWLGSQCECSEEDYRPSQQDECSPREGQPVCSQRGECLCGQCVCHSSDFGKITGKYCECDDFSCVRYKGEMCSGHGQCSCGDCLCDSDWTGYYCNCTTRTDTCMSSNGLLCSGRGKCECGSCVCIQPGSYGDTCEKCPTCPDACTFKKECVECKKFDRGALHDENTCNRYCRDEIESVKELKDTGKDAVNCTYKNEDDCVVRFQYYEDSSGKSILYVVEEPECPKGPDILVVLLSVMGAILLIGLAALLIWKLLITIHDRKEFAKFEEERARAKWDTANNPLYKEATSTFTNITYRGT

The values that follow come from patent US20070004622A1.

The target in this assay is αvβ3 integrin (human) (UniProt P06756+P05106). Nature of the assay: biotin-βig-h3 incubated with HUVECs at 4° C., lysates blotted with streptavidin-HRP.

B1: biotinylated βig-h3 (ligand)
chain: YQRKICGKSTVISYECCPGYEKVPGEKGCPAALPLSNLYETLGVVGSTTTQLYTDRTEKLRPEMEGPGSFTIFAPSNEAWASLPAEVLDSLVSNVNIELLNALRYHMVGRRVLTDELKHGMTLTSMYQNSNIQIHHYPNGIVTVNCARLLKADHHATNGVVHLIDKVISTITNNIQQIIEIEDTFETLRAAVAASGLNTMLEGNGQYTLLAPTNEAFEKIPSETLNRILGDPEALRDLLNNHILKSAMCAEAIVAGLSVETLEGTTLEVGCSGDMLTINGKAIISNKDILATNGVIHYIDELLIPDSAKTLFELAAESDVSTAIDLFRQAGLGNHLSGSERLTLLAPLNSVFKDGTPPIDAHTRNLLRNHIIKDQLASKYLYHGQTLETLGGKKLRVFVYRNSLCIENSCIAAHDKRGRYGTLFTMDRVLTPPMGTVMDVLKGDNRFSMLVAAIQSAGLTETLNREGVYTVFAPTNEAFRALPPRERSRLLGDAKELANILKYHIGDEILVSGGIGALVRLKSLQGDKLEVSLKNNVVSVNKEPVAEPDIMATNGVVHVITNVLQPPANRPQERGDELADSALEI
modifications: biotinylated (sites not given)
As for B1, the binding result is listed as “binds”.
